Results taken from doi:10.1101/351056.
Results are given in words; binding and its absence hold for the method and conditions named. For part of these data: In cells and extracts the contact can be indirect. Some entries that bind do so weakly or less than the wild type. Sequences can lack the tags named with a protein.

The chains behind the UniProt entries cited, without tags or fusion partners. Where a name states a change or a piece, a line headed by the entry shows the natural chain unless it says otherwise. Residues count along the entry.
UniProt O22476: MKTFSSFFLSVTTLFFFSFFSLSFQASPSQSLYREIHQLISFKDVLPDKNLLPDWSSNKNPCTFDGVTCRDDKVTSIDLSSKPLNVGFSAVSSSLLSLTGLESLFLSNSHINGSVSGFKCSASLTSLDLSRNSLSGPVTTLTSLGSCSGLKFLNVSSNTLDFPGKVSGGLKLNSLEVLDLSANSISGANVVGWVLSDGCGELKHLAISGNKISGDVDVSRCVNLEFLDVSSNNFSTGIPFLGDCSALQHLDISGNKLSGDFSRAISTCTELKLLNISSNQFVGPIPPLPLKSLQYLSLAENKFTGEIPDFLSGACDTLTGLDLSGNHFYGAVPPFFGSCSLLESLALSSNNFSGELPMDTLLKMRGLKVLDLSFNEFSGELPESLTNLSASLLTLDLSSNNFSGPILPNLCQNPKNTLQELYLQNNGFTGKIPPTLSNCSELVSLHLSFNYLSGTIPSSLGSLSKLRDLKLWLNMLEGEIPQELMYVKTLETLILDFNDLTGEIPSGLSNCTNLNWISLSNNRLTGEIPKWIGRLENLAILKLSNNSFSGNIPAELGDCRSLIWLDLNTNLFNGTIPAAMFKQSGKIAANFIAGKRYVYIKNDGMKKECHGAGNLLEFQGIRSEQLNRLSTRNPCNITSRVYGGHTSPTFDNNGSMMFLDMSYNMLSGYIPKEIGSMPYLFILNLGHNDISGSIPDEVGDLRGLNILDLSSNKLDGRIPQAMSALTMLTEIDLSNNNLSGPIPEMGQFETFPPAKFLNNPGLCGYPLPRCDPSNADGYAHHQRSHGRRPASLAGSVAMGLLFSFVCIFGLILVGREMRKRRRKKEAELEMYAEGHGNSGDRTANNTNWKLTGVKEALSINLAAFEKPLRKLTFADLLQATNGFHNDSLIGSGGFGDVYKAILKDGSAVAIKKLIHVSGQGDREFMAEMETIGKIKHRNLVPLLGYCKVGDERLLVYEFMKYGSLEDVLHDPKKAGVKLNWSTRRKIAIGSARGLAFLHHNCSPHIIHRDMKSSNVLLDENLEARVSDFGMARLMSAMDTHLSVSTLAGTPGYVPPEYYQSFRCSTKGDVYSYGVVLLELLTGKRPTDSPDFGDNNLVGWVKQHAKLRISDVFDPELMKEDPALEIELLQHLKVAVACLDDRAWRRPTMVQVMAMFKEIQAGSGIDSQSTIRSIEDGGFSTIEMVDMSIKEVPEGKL
BRI1-cYFP: residues 24-1196 of O22476

Columns and labels:
[1] = target: T1, GST-TTL3ΔN3 (Arabidopsis thaliana) (UniProt Q9SIN1); test: pull-down
T1 sequence: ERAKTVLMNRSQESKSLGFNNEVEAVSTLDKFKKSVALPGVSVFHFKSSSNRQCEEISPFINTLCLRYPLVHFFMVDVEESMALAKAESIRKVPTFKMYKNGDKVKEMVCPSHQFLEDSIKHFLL

[2] = target: T2, GST-TTL3ΔN1 (Arabidopsis thaliana) (UniProt Q9SIN1); test: pull-down
T2 sequence: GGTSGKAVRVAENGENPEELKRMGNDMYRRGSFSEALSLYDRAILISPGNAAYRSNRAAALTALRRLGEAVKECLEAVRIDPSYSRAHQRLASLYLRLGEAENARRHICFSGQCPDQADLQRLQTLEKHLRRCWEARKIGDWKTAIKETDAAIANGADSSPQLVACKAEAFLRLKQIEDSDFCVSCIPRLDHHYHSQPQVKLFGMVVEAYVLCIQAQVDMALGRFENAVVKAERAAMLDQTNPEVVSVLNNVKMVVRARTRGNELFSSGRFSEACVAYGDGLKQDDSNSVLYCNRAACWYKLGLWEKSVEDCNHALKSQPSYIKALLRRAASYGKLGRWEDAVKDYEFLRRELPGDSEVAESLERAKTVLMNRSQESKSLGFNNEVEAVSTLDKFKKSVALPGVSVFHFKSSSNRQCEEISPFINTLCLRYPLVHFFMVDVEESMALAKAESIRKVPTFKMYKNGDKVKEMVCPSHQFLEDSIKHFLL

[3] = target: T3, TTL3-nYFP (Arabidopsis thaliana) (UniProt Q9SIN1); test: split reporter
T3 sequence: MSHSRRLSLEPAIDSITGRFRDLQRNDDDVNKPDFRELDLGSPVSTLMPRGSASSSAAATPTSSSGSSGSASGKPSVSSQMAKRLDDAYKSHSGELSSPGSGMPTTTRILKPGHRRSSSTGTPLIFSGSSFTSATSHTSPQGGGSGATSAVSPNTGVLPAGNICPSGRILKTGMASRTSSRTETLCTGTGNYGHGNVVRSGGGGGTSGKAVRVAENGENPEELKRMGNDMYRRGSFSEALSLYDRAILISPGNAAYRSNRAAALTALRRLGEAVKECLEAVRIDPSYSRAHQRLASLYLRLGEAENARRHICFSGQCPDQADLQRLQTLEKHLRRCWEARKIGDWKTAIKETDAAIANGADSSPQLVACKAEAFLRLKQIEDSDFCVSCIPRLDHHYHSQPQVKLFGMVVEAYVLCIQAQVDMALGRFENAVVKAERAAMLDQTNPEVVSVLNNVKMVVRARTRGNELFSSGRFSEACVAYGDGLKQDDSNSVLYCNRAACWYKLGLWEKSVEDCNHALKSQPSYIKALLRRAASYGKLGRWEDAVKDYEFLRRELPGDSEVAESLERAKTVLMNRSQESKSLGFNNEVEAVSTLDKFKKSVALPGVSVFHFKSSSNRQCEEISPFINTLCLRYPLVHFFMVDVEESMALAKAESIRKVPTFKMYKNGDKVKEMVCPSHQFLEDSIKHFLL

[4] = target: BRI1-nYFP (Arabidopsis thaliana) (UniProt O22476); test: split reporter
[5] = target: T4, TTL3-cYFP (Arabidopsis thaliana) (UniProt Q9SIN1); test: split reporter
T4 sequence: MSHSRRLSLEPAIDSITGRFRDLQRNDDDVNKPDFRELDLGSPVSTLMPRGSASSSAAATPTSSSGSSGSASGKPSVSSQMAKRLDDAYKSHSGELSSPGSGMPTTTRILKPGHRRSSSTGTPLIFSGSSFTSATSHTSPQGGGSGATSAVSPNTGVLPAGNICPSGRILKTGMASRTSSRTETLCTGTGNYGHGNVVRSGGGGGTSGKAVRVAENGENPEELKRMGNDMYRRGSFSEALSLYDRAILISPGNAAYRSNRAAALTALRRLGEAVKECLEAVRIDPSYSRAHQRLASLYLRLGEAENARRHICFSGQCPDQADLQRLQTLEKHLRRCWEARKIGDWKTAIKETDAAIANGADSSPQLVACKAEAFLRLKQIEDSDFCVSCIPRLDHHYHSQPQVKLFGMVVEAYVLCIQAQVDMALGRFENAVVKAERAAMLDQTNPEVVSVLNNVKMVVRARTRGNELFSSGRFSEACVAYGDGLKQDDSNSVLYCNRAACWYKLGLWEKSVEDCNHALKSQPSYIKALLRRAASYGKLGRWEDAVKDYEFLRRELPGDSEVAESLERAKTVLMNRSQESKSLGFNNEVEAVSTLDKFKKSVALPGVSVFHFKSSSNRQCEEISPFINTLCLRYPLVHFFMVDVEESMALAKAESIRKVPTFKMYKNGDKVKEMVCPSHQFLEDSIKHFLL

[6] = target: BRI1-cYFP (Arabidopsis thaliana) (UniProt O22476); test: split reporter

Q: “MBP-BRI1cyt (from UniProt O22476 814-1196) (domain or fragment)” was tested. Which binding [1] did it give?
A: no binding

Q: And the binding [2]?
A: no binding

B1: BAK1-cYFP (receptor, UniProt Q94F62 26-615)
chain: NAEGDALSALKNSLADPNKVLQSWDATLVTPCTWFHVTCNSDNSVTRVDLGNANLSGQLVMQLGQLPNLQYLELYSNNITGTIPEQLGNLTELVSLDLYLNNLSGPIPSTLGRLKKLRFLRLNNNSLSGEIPRSLTAVLTLQVLDLSNNPLTGDIPVNGSFSLFTPISFANTKLTPLPASPPPPISPTPPSPAGSNRITGAIAGGVAAGAALLFAVPAIALAWWRRKKPQDHFFDVPAEEDPEVHLGQLKRFSLRELQVASDNFSNKNILGRGGFGKVYKGRLADGTLVAVKRLKEERTQGGELQFQTEVEMISMAVHRNLLRLRGFCMTPTERLLVYPYMANGSVASCLRERPESQPPLDWPKRQRIALGSARGLAYLHDHCDPKIIHRDVKAANILLDEEFEAVVGDFGLAKLMDYKDTHVTTAVRGTIGHIAPEYLSTGKSSEKTDVFGYGVMLLELITGQRAFDLARLANDDDVMLLDWVKGLLKEKKLEALVDVDLQGNYKDEEVEQLIQVALLCTQSSPMERPKMSEVVRMLEGDGLAERWEEWQKEEMFRQDFNYPTHHPAVSGWIIGDSTSQIENEYPSGPR
Q: For B1, which binding [3] is on record?
A: no binding

Q: What about the binding [4] of the same molecule?
A: binds weakly

B2: BAK1-nYFP (receptor, UniProt Q94F62 26-615)
chain: NAEGDALSALKNSLADPNKVLQSWDATLVTPCTWFHVTCNSDNSVTRVDLGNANLSGQLVMQLGQLPNLQYLELYSNNITGTIPEQLGNLTELVSLDLYLNNLSGPIPSTLGRLKKLRFLRLNNNSLSGEIPRSLTAVLTLQVLDLSNNPLTGDIPVNGSFSLFTPISFANTKLTPLPASPPPPISPTPPSPAGSNRITGAIAGGVAAGAALLFAVPAIALAWWRRKKPQDHFFDVPAEEDPEVHLGQLKRFSLRELQVASDNFSNKNILGRGGFGKVYKGRLADGTLVAVKRLKEERTQGGELQFQTEVEMISMAVHRNLLRLRGFCMTPTERLLVYPYMANGSVASCLRERPESQPPLDWPKRQRIALGSARGLAYLHDHCDPKIIHRDVKAANILLDEEFEAVVGDFGLAKLMDYKDTHVTTAVRGTIGHIAPEYLSTGKSSEKTDVFGYGVMLLELITGQRAFDLARLANDDDVMLLDWVKGLLKEKKLEALVDVDLQGNYKDEEVEQLIQVALLCTQSSPMERPKMSEVVRMLEGDGLAERWEEWQKEEMFRQDFNYPTHHPAVSGWIIGDSTSQIENEYPSGPR
Q: Which results are given for B2?
A: binding [5]: no binding; binding [6]: binds weakly
